The results in this text go back to the supplement of paper PMC3334620.

The full ranking holds about 33,000 sequences; the median of “E-score (-0.5 to 0.5)” is about -8e-05, and the highest 2% start at about 0.23. Some of the results follow.

For this assay, the target named is T1, Nrg2 (UniProt P38082).
T1 sequence: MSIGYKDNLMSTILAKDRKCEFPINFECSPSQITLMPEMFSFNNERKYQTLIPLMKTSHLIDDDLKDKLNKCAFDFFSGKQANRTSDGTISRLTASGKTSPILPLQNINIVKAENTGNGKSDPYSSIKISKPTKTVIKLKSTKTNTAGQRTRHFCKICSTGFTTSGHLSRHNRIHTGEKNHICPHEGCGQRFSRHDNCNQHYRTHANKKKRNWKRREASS
The assay can be described thus: PBM E-score (8-mer binding enrichment) (E-score (-0.5 to 0.5)); higher = stronger / more preferred TF binding. As to conditions: protein concentration: 100 nM; construct: GST-full length. In a few lines:
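Universal all-10-mer Agilent arrays, fresh or stripped once, were converted to double-stranded form by primer extension. GST-tagged yeast transcription factors from PURExpress in vitro transcription/translation, full-length or DNA-binding domain only, were applied at about 100-200 nM and detected with fluorescent anti-GST. After masliner normalisation, the Universal PBM Analysis Suite scored each ungapped eight-base word together with its reverse complement by E-score.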
Consider CATTCCCC, for which the “PBM E-score” value was 0.157.

As for ACCATGTC, the “PBM E-score” value was -0.0503. Then CGGTTTTA, with -0.0482. Then CCTAAGCA, with -0.122. To CTGCTATA belongs 0.157; to GCGTGACA, 0.126.

GAAATGCA: the “PBM E-score” value was found to be 0.055. To GCGCTGCC belongs -0.315; to CAATCGAG, -0.0253. To CAAAAGGG belongs 0.159; to TCTGCTCA, -0.112. Then GAAAAGAC, with -0.0152; and CGCCTTAC, with -0.176. Consider GACAAATC, for which the “PBM E-score” value was found to be 0.0497. To CTAAGACA belongs 0.0315; to AGGCCCTG, 0.136; to CCGGTTTC, 0.00257.

On to GAAAAAAA, for which the “PBM E-score” value amounted to 0.133.

As for CGCGCTGA, the “PBM E-score” value turned out to be 0.0409.

Regarding AGCAGTCC, the “PBM E-score” value is -0.0735. To GACATTCA belongs 0.0321; to TTACTGAA, 0.0899; to GTACACGA, 0.0505.

Consider CCGTATGA, for which the “PBM E-score” value was determined as 0.0752.

In the case of ATAGATAC, the “PBM E-score” value was 0.0874.

Take GTCATAAC: the “PBM E-score” value is 0.00055.

As to AGGCCAGA, the “PBM E-score” value amounted to 0.0719. To CCGGTTTA belongs -0.083; to CCACCGGG, -0.172. Then CATTTAAA, with 0.208; and GAATCATA, with 0.0301; and AAAAGTGC, with -0.00319. CATCACTA: the “PBM E-score” value was -0.0874.

For the sequence CTAAACAG, the “PBM E-score” value was -0.131. To CCCCGACG belongs -0.0671. As to AACATGTG, the “PBM E-score” value amounted to 0.176. Turning to CGGTGACA, the “PBM E-score” value is -0.00256. To CATAGCAC belongs 0.0674; to AACCCGCG, 0.267; to CTAAAGAG, -0.0979. Consider CTAGACGC, for which the “PBM E-score” value is -0.0456.

Consider CGTTACCA, for which the “PBM E-score” value stood at 0.101. Then CTTATTTC, with 0.222; and ATTACTTA, with 0.104. Take CCGTACCA: the “PBM E-score” value is 0.116. To GGCAGGAC belongs -0.0676. To GAACGACA belongs 0.0551; to GCCTCCCA, -0.254; to ACGTTGCT, 0.171. To CACTGTAC belongs -0.0202; to CATAATGC, -0.00966. Regarding AGTTTTTG, the “PBM E-score” value was 0.171. To GATTTACA belongs 0.155; to GCACCGAC, -0.0591. In the case of GAAGCTGA, the “PBM E-score” value worked out at 0.0775. To CACTACGA belongs -0.133. Then GGATTAGA, with -0.0145; and AGATAACG, with 0.209. Take CAATGGAA: the “PBM E-score” value was 0.131. To ATAAATAA belongs 0.237; to GTGAGCCA, -6e-05; to ATAAGTAA, 0.0712. Then CCTCTTCA, with -0.123; and CTTTACTA, with 0.26; and CCGTGAAA, with 0.0709.

In the case of CGGGATCC, the “PBM E-score” value amounted to 0.12. Take ACGGTTTG: the “PBM E-score” value is -0.0837.

Turning to GCCCCTGA, the “PBM E-score” value amounted to 0.292. Then AACTTGCA, with 0.0765; and AGCGTGGG, with -0.132. To AGATTATG belongs 0.114; to AATTAGCC, -0.057; to CACATGCG, 0.113. On to CCATCCCC, for which the “PBM E-score” value is -0.0249.

As for ACATCATA, the “PBM E-score” value turned out to be 0.0906. To AGAAAAAC belongs -0.186. Regarding TCGTCACA, the “PBM E-score” value is 0.154. Take CTCTTAGA: the “PBM E-score” value is -0.0806. To ATTACGAG belongs 0.145; to CCGGTCCC, -0.0863; to CATTCTTC, 0.147. Then TACCAAAA, with -0.0424; and GTAACGAC, with -0.112; and ATGGGCTG, with -0.0381. Regarding AGATACGA, the “PBM E-score” value turned out to be 0.153. Then CACTAGCA, with -0.0399.
